Data on one substance can be found in publication PMC10681173.

Chains of the proteins cited; added tags and fusions are not shown.
UniProt P73407: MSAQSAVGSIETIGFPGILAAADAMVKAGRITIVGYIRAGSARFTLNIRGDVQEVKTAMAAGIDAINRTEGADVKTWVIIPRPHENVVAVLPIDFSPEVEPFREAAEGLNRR

These are yes or no findings as the source states them, for the method shown. In cells and extracts the contact can be indirect. Some entries that bind do so weakly or less than the wild type.

The target of this assay is CcmK4 from Synechocystis sp. PCC 6803 with GFP10 or GFP11 at the N-terminus (Synechocystis sp. PCC 6803) (UniProt P73407). Nature of the assay: split reporter; tripartite GFP in E. coli BL21(DE3) cells; single vector, POI-10 and POI-11 on a bicistronic mRNA under T7p, GFP1-9 independent; IPTG 10 uM from the start, 37°C; Fmax relative to the RMM reference.

Consider “CcmK4 from Synechocystis sp. PCC 6803 with GFP10 or GFP11 at the N-terminus (from UniProt P73407 1-112)”, for which the binding entry is “binds”.
